{"source": "patent US20030021772A1", "about": "(priority 2001, published 2003)", "origin": "cited, not measured here", "system": "patients with Parkinson's disease", "settings": "applied intravenously, U.S. Pat. Nos. 4,970,200 and 5,019,561; cited from earlier work", "note": "Some of these results come from one statement about several compounds together.", "data": [{"substance": "nicotinamide-adenine-dinucleotide phosphate [NADPH]", "values": [{"measurement": "duration of beneficial effect", "value": "at least 24 hours"}]}]}
